For this assay, the system named is P388 leukemia ip, CD2F1 mice, survival T/C. Briefly: NCI In Vivo Anticancer Drug Screen. Data for tumor model P388 Leukemia (intraperitoneal) in CD2F1 (CDF1) mice. Conditions: T/C endpoint: median survival time, higher T/C = longer survival.
The mark [1] stands for this setting: dose: 50.0 mg/kg/injection, schedule: Q01DX009 (ip), vehicle: saline with Tween-80.
[2] abbreviates: dose: 200.0 mg/kg/injection, schedule: Q01DX009 (ip), vehicle: saline.
Where [3] appears, read: dose: 6.25 mg/kg/injection, schedule: Q01DX009 (ip), vehicle: water.
[4] abbreviates: dose: 12.5 mg/kg/injection, schedule: Q01DX009 (ip), vehicle: water.
Where [5] appears, read: dose: 50.0 mg/kg/injection, schedule: Q01DX009 (ip), vehicle: water.
Setting [6] is: dose: 200.0 mg/kg/injection, schedule: Q01DX009 (ip), vehicle: suspension in saline.
Setting [7] is: dose: 100.0 mg/kg/injection, schedule: Q01DX005 (ip), vehicle: Klucel (hydroxypropylcellulose) (HPC).
The mark [8] stands for this setting: dose: 200.0 mg/kg/injection, schedule: Q01DX005 (ip), vehicle: Klucel (hydroxypropylcellulose) (HPC).
The mark [9] stands for this setting: dose: 100.0 mg/kg/injection, schedule: Q01DX009 (ip), vehicle: saline with Tween-80.
[10] abbreviates: dose: 60.0 mg/kg/injection, schedule: Q01DX005 (ip), vehicle: saline with Tween-80.
Where [11] appears, read: dose: 120.0 mg/kg/injection, schedule: Q01DX005 (ip), vehicle: saline with Tween-80.
Where [12] appears, read: dose: 240.0 mg/kg/injection, schedule: Q01DX005 (ip), vehicle: saline with Tween-80.
[13] abbreviates: dose: 30.0 mg/kg/injection, schedule: Q01DX005 (ip), vehicle: saline with Tween-80.
Where [14] appears, read: dose: 25.0 mg/kg/injection, schedule: Q01DX009 (ip), vehicle: Klucel (hydroxypropylcellulose) (HPC).

The list does not hold the whole screen: it gathers tests that were run many times, whatever their T/C, doses with no T/C, and many T/C values between a quarter and a half above the control. Further doses and runs are listed elsewhere. T/C gives the treated animals as a percentage of the vehicle group. Some doses have a count of surviving animals in place of a T/C: the source holds a T/C of zero for them, seemingly a mark for toxic or unscored doses. Some survivor counts are full or nearly so, which does not show that the dose was tolerated: survival well below the control is almost never listed, so the zero probably covers shortened survival too. Counts of survivors are from the toxicity check (mostly the fifth day) where no day follows; animals may have died later. Schedule codes are those of the source, taken here to give the interval after Q, in days (D) or hours (H), and the number of doses after X. Some doses were run more than once; their values stand side by side, smallest first. Where survival is the endpoint, this PubChem deposit counts one and a half times the control or more as active, and values a quarter to a half above the control carry no call in these data; other NCI protocols may use other cut-offs. Some T/C values carry the count of animals alive at the toxicity check (mostly the fifth day); without a count, all were alive then.

Regarding `CC(C)OC(=O)Nc1nc2ccc(C(=O)OC(C)C)cc2[nH]1`, the T/C (dose: 400.0 mg/kg/injection, schedule: Q04DX003 (ip), vehicle: saline with Tween-80) was 135 [5 of 6 alive] and 136 % of control [5 of 6 alive].
For `COc1ccc(CCC#N)cc1OC`, where the note is “dose: 400.0 mg/kg/injection, schedule: Q01DX009 (ip), vehicle: other”, the survivor count is 3 of 6.
As to `O=c1[nH]c2ccccc2c2cc3ccccc3cc12`, the survivor count under setting [1] was 6 of 6.
In the case of `CC(=O)Oc1ccc(OC(C)=O)c2c1C(=O)C=CC2=O`, the survivor count is listed as 1 of 6 (dose: 50.0 mg/kg/injection, schedule: Q01DX009 (ip), vehicle: saline); 0 of 6 (dose: 100.0 mg/kg/injection, schedule: Q01DX009 (ip), vehicle: saline); 0 of 6 under setting [2].
In the case of `O=NNc1ccc2ccccc2n1`, the T/C is, setting by setting: (dose: 3.12 mg/kg/injection, schedule: Q01DX009 (ip), vehicle: water) 126 % of control; under setting [3], 128 and 129 % of control; under setting [4], 128 and 134 % of control. Moreover, the survivor count under setting [5] was 4 of 6 and 6 of 6.
As to `CNC(=O)OCc1c(COC(=O)NC)c(-c2ccc([N+](=O)[O-])cc2)n(C)c1C`, the T/C (dose: 3.13 mg/kg/injection, schedule: Q01DX009 (ip), vehicle: distilled water + Tween-80) is 146 % of control. Besides, the survivor count is given as 6 of 6 (dose: 25.0 mg/kg/injection, schedule: Q01DX009 (ip), vehicle: distilled water + Tween-80); 4 of 6 (dose: 50.0 mg/kg/injection, schedule: Q01DX009 (ip), vehicle: distilled water + Tween-80); 1 of 6 (dose: 100.0 mg/kg/injection, schedule: Q01DX009 (ip), vehicle: distilled water + Tween-80).
For the compound `S=c1[nH]c(N2CCOCC2)ncc1-c1ccccc1`, the survivor count (dose: 400.0 mg/kg/injection, schedule: Q04DX002 (ip), vehicle: saline with Tween-80) is 6 of 6.
With `C[N+](C)(C)/C=C/c1ccc([N+](=O)[O-])o1`, the survivor count under setting [6] is listed as 1 of 6.
In the case of `CO/N=C(\N)NC(=O)Cc1c(Cl)cccc1Cl`, the survivor count reads like this: under setting [7], 5 of 6; under setting [8], 1 of 6.
As to `COC(=O)OC(C#N)c1ccc([N+](=O)[O-])cc1` (configuration not stated), the survivor count (dose: 100.0 mg/kg/injection, schedule: Q01DX009 (ip), vehicle: suspension in saline) was 6 of 6 and the survivor count under setting [6] is given as 4 of 6.
With `CONC(=O)N/N=C/c1c(CO)cnc(C)c1O`, the survivor count runs as follows: (dose: 50.0 mg/kg/injection, schedule: Q01DX005 (ip), vehicle: Klucel (hydroxypropylcellulose) (HPC)) 0 of 6; under setting [7], 0 of 6; under setting [8], 0 of 6.
`Nc1nc(=S)c2ncn(C3OC(COC(=O)c4ccc(Cl)cc4)C(OC(=O)c4ccc(Cl)cc4)C3OC(=O)c3ccc(Cl)cc3)c2[nH]1` (configuration not stated): the T/C was 136 % of control under setting [1]; 145 % of control under setting [9]; 136 % of control (dose: 100.0 mg/kg/injection, schedule: Q04DX003 (ip), vehicle: saline with Tween-80); 133 % of control (dose: 300.0 mg/kg/injection, schedule: Q04DX003 (ip), vehicle: saline with Tween-80).
In the case of `COC(=O)C(C#N)=C(SC)SC`, the survivor count under setting [9] is 4 of 6 and the survivor count (dose: 200.0 mg/kg/injection, schedule: Q01DX009 (ip), vehicle: saline with Tween-80) is recorded as 0 of 6.
As for `Nc1nc(=O)[nH]c([O-])c1N=O.Nc1nc(=O)[nH]c([O-])c1N=O.[Ag+].[Ag+]`, the survivor count reads like this: under setting [10], 0 of 6 and 3 of 6; under setting [11], 0 of 6; under setting [12], 0 of 6.
For `CN1C(=O)C2C3C=CC(C2C1=O)C1C2C(=O)N(C)C(=O)C2C31` (configuration not stated), the T/C (dose: 400.0 mg/kg/injection, schedule: Q01DX009 (ip), vehicle: Klucel (hydroxypropylcellulose) (HPC)) is 135 % of control.
As to `Cc1cc2nc(C(C)C(=O)c3ccc(Cl)cc3)c(=O)[nH]c2cc1C` (configuration not stated), the survivor count (dose: 15.0 mg/kg/injection, schedule: Q01DX005 (ip), vehicle: saline with Tween-80) is on record as 6 of 6; the survivor count under setting [13] is reported as 6 of 6; the survivor count under setting [10] is listed as 6 of 6; the survivor count under setting [11] is listed as 6 of 6; the survivor count under setting [12] is recorded as 6 of 6.
Take `CC1(C)N=C(N)N=C(N)N1c1ccc(CNC(=O)Nc2ccc(S(=O)(=O)F)cc2)cc1`: for the setting “dose: 50.0 mg/kg/injection, schedule: Q04DX003 (ip), vehicle: saline”, the T/C was 145 % of control.
Take `CCC(C)N(CC)CCNc1cc(OC)cc2cccnc12` (configuration not stated): for the setting “dose: 200.0 mg/kg/injection, schedule: Q01DX005 (ip), vehicle: saline”, the survivor count is given as 0 of 5.
For `O=C(O)CCC(=O)C1=CSC(=C2SC=CS2)S1`, the survivor count (dose: 120.0 mg/kg/injection, schedule: Q01DX005 (ip), vehicle: Klucel + Tween-80) is 1 of 6 and the survivor count (dose: 240.0 mg/kg/injection, schedule: Q01DX005 (ip), vehicle: Klucel + Tween-80) is 0 of 6.
As for `CC(C)(C)c1cc(N)cc([N+](=O)[O-])c1`, the survivor count (dose: 400.0 mg/kg/injection, schedule: Q04DX002 (ip), vehicle: other) was 5 of 6.
With `CCN(CC)CCSC(=O)N1c2ccccc2Sc2ccc(Cl)cc21`, the survivor count (dose: 12.5 mg/kg/injection, schedule: Q01DX009 (ip), vehicle: saline with Tween-80) is 6 of 6.
For the compound `O=C(S[Si](c1ccccc1)(c1ccccc1)c1ccccc1)c1ccccc1`, the survivor count under setting [2] is 5 of 6.
Regarding `Cc1ccc([P+](CCN2C(=O)c3ccccc3C2=O)(c2ccc(C)cc2)c2ccc(C)cc2)cc1`, the T/C under setting [3] was 127 % of control. The survivor count under setting [4] was 3 of 6.
Turning to `C=C1Sc2ccccc2N1C`, the T/C under setting [14] was 125 % of control. The survivor count (dose: 50.0 mg/kg/injection, schedule: Q01DX009 (ip), vehicle: Klucel (hydroxypropylcellulose) (HPC)) is reported as 3 of 6.
On to `N#CN=[N+]([O-])c1ccc(Cl)cc1`, for which, for the setting “dose: 50.0 mg/kg/injection, schedule: Q04DX003 (ip), vehicle: Klucel (hydroxypropylcellulose) (HPC)”, the survivor count is recorded as 4 of 6.
Turning to `O=C(O)c1ccc2c3c(ncnc13)-c1ccccc1C2=O`, the T/C under setting [14] is 125 % of control.
Turning to `CCCCNc1ccc(-c2c(N)nc(N)nc2CC)cc1[N+](=O)[O-]`, the T/C was 146 % of control under setting [11] and 126 % of control under setting [12].
Consider `COc1ccc(-c2c(-c3ccccc3)c(=O)oc3cc(OC)ccc23)cc1`, for which the survivor count is, setting by setting: under setting [10], 6 of 6; under setting [12], 4 of 4 and 6 of 6.
With `CCOC(=S)NC(=O)c1ccccc1`, the survivor count (dose: 400.0 mg/kg/injection, schedule: Q01DX009 (ip), vehicle: saline with Tween-80) is listed as 3 of 6.
In the case of `C/C(=N\NC(=S)N1CC(C)OC(C)C1)c1ncccn1` (configuration not stated), the survivor count reads like this: under setting [13], 4 of 6; under setting [10], 5 of 6; under setting [11], 0 of 6; under setting [12], 0 of 6.
For the compound `COc1cccc2c1C(=O)c1c(O)c3c(c(O)c1C2=O)C[C@H](O)C[C@@H]3OC1CC(N)C(O)C(C)O1` (some centres not stated), the T/C by setting is: (dose: 9.4 mg/kg/injection, schedule: Q04DX003 (ip), vehicle: water) 133 % of control; (dose: 16.0 mg/kg/injection, schedule: Q04DX003 (ip), vehicle: saline) 145 % of control; (dose: 18.8 mg/kg/injection, schedule: Q04DX003 (ip), vehicle: water) 145 % of control; (dose: 32.0 mg/kg/injection, schedule: Q04DX003 (ip), vehicle: saline) 145 % of control; (dose: 37.5 mg/kg/injection, schedule: Q04DX003 (ip), vehicle: water) 136 % of control. Besides, the survivor count (dose: 25.0 mg/kg/injection, schedule: Q01DX009 (ip), vehicle: water) was 6 of 6 and the survivor count under setting [5] was 5 of 6.

These data come from PubChem BioAssay AID330 (DTP/NCI, 2004).
